No constants are given. Whether binding was seen depends on the method and setting. In cells and extracts the contact can be indirect. Some binding calls cover weakened binding; strength is not graded here.
Experiments:
BRAF^V600E (human) = BRAF^V600E (human) (UniProt P15056); assay: co-IP; HEK293T expressing HA-BRAF proteins, cultured with the HSP90 inhibitor XL888 (1 μM) or vehicle for 4 hours before lysis; anti-HA precipitation, SDS-PAGE, blot for HSP90 and CDC37; both called XL888-sensitive interactors
BRAF^ΔNVTAP (human) = BRAF^ΔNVTAP (human) (UniProt P15056); assay: as above

Protein sequences, listed by entry. Tags and fused reporters are not part of them. Lines headed by an entry give the natural chain unless they say otherwise; changes in a name come on top. Chains listed by the source or under a name are the forms on record and can include a tag or linker.
UniProt P15056: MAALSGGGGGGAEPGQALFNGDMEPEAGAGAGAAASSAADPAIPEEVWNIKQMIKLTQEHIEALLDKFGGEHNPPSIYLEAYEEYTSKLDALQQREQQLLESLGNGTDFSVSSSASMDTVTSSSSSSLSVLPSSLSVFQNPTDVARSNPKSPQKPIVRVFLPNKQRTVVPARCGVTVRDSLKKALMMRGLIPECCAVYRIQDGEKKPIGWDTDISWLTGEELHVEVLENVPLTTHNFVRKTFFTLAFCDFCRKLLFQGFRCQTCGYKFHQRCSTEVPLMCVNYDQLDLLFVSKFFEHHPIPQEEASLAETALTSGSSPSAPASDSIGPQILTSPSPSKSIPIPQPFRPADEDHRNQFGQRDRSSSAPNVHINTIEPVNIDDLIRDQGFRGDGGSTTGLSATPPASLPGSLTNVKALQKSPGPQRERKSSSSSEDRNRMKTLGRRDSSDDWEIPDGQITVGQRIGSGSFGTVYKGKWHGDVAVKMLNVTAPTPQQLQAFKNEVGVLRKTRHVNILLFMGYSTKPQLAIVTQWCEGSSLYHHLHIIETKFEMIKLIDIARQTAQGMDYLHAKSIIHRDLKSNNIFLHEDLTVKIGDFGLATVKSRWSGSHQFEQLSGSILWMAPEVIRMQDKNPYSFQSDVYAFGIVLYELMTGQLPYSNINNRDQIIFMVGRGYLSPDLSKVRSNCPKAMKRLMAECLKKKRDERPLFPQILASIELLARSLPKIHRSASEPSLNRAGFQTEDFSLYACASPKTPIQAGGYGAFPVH
BRAF^ΔNVTAP (P15056, form named): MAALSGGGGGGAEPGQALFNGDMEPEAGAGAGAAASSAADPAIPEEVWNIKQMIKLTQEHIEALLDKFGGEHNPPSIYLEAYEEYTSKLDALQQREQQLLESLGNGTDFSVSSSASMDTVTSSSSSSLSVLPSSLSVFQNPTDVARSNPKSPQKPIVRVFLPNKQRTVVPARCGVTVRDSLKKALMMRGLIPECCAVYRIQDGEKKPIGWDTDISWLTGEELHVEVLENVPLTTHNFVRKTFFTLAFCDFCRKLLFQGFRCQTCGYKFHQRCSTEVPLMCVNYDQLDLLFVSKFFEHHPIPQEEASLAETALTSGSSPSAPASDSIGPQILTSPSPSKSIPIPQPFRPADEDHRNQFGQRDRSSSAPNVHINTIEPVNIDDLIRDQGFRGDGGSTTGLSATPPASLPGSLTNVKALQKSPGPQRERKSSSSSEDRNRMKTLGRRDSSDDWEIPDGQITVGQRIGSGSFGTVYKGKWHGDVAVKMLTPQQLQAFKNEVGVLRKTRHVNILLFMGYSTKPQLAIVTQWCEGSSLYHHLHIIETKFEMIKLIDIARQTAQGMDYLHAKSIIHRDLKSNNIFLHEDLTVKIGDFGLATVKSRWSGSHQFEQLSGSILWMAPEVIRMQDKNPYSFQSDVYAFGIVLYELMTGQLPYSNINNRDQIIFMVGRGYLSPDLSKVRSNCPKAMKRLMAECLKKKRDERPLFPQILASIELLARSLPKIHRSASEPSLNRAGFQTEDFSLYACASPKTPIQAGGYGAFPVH

binding (BRAF^V600E (human)): binds
binding (BRAF^ΔNVTAP (human)): binds
B1: CDC37 (protein, UniProt Q16543 1-378)
chain: MVDYSVWDHIEVSDDEDETHPNIDTASLFRWRHQARVERMEQFQKEKEELDRGCRECKRKVAECQRKLKELEVAEGGKAELERLQAEAQQLRKEERSWEQKLEEMRKKEKSMPWNVDTLSKDGFSKSMVNTKPEKTEEDSEEVREQKHKTFVEKYEKQIKHFGMLRRWDDSQKYLSDNVHLVCEETANYLVIWCIDLEVEEKCALMEQVAHQTIVMQFILELAKSLKVDPRACFRQFFTKIKTADRQYMEGFNDELEAFKERVRGRAKLRIEKAMKEYEEEERKKRLGPGGLDPVEVYESLPEELQKCFDVKDVQMLQDAISKMDPTDAKYHMQRCIDSGLWVPNSKASEAKEGEEAGPGDPLLEAVPKTGDEKDVSV
